Some of the results follow.
How the values were obtained:
Assay in all cases: log2 fold change, soluble protein after heating vs DMSO (PISA); higher = thermal stabilisation; K562 cells, 10 uM, 30 min; active = over 0.2 and 3.5 SD of the protein, either way, in both replicates (recomputed)
[1] = compound: CN1CCN(CCOc2cc(OC3CCOCC3)c3c(Nc4c(Cl)ccc5c4OCO5)ncnc3c2)CC1 [saracatinib]
Procedure, shortened: (§1)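 Aliquots of K562 cells (2×10^6 cells/mL) treated with 10 μM compound for 30 min were heated for 3 min over 48°C-58°C. After pooling and extraction in PBS with 0.5% NP-40 at 4°C, soluble protein from a 21,000xg, 90 min spin was quantified by TMTpro 16plex LC-MS/MS with channel sums equalised. Thermal stability is expressed against control samples, from duplicates, as a log2 fold change.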

Sequences of proteins named here, by UniProt entry; tags and fusion partners are left off. A change or cut given only in a name is not applied to a line headed by its entry.
UniProt O14672: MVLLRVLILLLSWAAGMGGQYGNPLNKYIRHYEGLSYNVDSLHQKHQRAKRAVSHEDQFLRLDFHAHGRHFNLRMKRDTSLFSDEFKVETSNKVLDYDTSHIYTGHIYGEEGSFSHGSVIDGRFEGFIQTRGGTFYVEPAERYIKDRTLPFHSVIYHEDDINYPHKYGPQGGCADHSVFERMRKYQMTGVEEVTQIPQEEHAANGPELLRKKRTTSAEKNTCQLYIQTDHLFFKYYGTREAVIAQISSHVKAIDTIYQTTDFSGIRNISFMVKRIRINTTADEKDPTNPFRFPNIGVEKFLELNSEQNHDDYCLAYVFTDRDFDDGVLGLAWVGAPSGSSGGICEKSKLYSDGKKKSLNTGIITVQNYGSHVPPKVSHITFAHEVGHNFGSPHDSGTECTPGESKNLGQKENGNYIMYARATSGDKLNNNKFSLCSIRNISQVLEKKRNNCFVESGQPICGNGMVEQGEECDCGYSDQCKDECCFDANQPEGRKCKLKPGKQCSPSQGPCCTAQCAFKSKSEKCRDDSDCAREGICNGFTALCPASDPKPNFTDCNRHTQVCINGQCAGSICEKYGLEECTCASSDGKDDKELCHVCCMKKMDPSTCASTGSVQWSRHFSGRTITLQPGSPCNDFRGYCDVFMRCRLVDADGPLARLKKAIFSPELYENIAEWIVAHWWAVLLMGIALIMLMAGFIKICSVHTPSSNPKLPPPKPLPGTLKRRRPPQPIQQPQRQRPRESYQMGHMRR
UniProt O00154: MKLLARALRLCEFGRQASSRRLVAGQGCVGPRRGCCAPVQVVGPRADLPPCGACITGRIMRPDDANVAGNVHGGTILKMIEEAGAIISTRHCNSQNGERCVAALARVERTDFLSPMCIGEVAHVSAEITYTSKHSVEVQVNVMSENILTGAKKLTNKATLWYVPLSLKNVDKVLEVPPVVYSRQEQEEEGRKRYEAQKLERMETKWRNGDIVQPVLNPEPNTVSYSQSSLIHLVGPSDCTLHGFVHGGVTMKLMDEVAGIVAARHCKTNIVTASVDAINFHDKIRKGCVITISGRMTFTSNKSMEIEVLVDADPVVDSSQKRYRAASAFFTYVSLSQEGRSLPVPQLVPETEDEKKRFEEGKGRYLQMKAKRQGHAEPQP
UniProt P49588, whole entry, looked up: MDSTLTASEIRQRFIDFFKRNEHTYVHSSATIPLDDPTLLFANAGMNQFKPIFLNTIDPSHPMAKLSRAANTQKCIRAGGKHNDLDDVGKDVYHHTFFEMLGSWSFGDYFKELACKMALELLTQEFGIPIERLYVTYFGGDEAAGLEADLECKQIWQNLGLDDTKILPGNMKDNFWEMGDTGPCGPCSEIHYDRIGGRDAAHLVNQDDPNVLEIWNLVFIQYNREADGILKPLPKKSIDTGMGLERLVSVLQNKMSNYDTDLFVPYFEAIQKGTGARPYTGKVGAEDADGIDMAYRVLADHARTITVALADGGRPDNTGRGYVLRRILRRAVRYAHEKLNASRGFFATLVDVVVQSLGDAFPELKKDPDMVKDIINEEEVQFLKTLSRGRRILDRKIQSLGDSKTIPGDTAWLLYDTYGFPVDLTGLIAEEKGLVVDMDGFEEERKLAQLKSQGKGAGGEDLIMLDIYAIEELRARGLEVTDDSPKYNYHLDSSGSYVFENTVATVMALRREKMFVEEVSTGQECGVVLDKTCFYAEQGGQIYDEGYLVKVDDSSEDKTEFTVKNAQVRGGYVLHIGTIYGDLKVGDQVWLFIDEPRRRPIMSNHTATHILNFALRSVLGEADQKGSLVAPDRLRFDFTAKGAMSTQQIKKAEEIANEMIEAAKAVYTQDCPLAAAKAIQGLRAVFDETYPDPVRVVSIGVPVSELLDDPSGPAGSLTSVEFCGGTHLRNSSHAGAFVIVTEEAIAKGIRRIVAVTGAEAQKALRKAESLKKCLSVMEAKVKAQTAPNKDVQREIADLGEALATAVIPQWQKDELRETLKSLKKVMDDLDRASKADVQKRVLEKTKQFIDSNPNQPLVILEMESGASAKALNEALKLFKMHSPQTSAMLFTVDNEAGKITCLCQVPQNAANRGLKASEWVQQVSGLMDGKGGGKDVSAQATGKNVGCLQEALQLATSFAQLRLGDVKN
UniProt P42765: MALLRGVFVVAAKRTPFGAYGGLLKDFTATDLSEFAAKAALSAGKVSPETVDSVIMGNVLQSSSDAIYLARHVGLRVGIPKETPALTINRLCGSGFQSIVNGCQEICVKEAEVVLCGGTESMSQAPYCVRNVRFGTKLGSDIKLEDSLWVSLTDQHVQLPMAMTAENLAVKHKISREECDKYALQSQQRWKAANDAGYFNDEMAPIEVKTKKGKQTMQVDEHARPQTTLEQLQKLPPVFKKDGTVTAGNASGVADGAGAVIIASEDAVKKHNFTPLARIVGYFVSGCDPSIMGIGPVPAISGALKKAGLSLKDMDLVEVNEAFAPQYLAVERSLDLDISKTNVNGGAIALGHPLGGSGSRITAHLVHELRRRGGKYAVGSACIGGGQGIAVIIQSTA
UniProt Q9NUQ8: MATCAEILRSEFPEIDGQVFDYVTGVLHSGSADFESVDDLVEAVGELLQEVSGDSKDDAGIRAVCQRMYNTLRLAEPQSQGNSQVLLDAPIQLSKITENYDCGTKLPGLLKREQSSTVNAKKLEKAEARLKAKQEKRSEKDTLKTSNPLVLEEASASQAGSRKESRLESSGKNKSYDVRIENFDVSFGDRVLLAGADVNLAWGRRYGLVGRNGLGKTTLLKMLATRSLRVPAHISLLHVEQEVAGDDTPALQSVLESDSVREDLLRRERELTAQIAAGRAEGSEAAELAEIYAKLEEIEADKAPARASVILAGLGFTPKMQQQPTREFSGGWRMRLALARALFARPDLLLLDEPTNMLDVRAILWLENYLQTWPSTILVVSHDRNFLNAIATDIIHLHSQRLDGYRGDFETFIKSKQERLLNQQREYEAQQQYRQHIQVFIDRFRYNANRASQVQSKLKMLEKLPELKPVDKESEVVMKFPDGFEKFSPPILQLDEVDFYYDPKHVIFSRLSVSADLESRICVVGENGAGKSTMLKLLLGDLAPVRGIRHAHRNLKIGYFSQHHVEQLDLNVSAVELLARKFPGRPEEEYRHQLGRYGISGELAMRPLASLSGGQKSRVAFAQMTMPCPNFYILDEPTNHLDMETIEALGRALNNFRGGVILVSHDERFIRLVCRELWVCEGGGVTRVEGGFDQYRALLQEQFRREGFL
UniProt Q9NZ32, whole entry, looked up: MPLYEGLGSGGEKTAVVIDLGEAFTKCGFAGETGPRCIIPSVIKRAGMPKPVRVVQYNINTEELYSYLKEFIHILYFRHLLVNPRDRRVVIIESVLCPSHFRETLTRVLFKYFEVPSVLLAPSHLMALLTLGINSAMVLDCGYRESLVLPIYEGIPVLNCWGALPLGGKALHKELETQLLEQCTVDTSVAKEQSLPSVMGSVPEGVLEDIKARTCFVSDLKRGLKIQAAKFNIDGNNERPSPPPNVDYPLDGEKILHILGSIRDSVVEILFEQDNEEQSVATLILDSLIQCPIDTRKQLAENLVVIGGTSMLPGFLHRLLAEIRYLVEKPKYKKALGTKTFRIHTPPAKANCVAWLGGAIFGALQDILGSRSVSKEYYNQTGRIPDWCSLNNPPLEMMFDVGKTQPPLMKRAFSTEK
UniProt Q7Z6V5: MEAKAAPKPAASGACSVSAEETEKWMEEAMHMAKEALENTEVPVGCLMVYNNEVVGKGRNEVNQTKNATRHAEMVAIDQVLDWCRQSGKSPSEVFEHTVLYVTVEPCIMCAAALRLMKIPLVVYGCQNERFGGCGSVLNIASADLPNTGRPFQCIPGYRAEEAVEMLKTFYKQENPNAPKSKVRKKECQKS
UniProt Q9NUB1: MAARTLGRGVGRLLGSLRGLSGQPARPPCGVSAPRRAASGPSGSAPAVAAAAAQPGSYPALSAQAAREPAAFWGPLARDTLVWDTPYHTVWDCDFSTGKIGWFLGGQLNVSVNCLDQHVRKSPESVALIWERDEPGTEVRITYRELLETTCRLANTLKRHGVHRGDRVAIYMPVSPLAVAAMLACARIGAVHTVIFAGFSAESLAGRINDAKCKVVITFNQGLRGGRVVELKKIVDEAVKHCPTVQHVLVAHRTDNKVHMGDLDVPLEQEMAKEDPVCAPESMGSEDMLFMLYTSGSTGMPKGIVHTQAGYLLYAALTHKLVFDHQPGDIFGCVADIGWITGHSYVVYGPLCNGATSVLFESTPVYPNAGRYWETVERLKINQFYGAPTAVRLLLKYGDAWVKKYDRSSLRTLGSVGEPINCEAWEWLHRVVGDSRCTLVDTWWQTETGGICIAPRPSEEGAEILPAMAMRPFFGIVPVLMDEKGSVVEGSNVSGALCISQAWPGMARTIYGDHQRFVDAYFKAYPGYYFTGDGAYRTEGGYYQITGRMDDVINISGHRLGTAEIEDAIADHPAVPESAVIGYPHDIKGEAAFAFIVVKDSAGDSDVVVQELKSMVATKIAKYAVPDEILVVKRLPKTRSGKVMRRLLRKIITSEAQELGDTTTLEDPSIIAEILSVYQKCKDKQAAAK
UniProt P61163, whole entry, looked up: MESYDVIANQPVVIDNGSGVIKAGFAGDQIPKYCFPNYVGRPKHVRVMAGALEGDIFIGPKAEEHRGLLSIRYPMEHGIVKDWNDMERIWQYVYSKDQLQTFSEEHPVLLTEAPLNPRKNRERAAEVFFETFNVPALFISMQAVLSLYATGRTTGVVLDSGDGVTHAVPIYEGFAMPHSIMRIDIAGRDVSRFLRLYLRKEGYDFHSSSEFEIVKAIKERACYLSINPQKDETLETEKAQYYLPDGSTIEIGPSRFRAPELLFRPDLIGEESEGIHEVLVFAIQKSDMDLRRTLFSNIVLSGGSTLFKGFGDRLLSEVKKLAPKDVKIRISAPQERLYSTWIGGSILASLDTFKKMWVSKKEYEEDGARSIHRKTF
UniProt Q9NRK6: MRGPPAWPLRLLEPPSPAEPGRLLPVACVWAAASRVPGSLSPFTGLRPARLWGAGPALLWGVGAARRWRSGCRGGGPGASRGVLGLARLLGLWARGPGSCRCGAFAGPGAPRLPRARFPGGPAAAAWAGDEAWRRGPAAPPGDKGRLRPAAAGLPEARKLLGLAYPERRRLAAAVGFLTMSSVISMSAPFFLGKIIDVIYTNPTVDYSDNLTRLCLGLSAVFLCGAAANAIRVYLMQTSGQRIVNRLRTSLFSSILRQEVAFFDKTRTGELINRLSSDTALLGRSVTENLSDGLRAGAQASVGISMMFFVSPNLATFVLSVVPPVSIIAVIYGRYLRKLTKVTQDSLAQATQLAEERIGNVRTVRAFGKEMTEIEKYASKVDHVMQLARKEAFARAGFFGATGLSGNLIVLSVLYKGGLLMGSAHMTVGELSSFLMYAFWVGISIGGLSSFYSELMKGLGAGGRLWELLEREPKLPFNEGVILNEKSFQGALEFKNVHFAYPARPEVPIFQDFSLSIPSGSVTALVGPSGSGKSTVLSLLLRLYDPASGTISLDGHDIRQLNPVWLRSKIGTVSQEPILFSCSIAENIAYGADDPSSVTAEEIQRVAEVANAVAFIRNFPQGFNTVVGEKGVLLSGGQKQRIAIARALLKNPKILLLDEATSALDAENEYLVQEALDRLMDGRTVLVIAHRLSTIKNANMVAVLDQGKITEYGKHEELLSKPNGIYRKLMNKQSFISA
UniProt P78536: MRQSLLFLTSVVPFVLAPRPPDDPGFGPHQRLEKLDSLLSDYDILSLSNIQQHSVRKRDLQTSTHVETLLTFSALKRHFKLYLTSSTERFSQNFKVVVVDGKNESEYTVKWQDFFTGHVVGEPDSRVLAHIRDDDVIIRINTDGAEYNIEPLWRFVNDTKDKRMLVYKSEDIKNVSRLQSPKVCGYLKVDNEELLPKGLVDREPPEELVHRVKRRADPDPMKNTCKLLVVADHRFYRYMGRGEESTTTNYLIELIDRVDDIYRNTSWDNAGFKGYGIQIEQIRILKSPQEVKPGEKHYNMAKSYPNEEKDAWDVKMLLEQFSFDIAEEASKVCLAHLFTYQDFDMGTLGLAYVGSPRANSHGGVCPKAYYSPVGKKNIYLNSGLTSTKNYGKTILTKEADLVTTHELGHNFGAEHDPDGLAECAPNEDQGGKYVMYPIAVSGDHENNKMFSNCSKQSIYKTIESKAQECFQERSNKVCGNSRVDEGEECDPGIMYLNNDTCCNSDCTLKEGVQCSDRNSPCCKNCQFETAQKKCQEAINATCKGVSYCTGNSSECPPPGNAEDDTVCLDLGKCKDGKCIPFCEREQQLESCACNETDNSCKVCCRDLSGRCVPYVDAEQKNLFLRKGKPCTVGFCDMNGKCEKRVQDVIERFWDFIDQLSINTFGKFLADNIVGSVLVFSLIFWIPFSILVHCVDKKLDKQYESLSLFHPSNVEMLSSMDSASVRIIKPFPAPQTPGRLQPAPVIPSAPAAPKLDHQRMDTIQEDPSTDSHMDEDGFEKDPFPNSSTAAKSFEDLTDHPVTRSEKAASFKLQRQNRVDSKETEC

[2] = compound: CN1CCN(c2nc(C3=C(c4c[nH]c5ccccc45)C(=O)NC3=O)c3ccccc3n2)CC1 [sotrastaurin]
Procedure, shortened: as §1

[3] = compound: CN1CC[C@H](c2c(O)cc(O)c3c(=O)cc(-c4ccccc4Cl)oc23)[C@H](O)C1 [alvocidib]
Procedure, shortened: as §1

[4] = compound: CN1CCc2c(c3ccccc3n2Cc2ccc(C(=O)NO)cc2)C1 [Tubastatin A]
Procedure, shortened: as §1

[5] = compound: CNC(=O)C1=CC=CC=C1NC2=NC(=NC=C2Cl)NC3=C(C=C(C=C3)N4CCOCC4)OC
Procedure, shortened: as §1

[6] = compound: CNC(=O)c1ccc(Nc2ncc(C(F)(F)F)c(NCc3nccnc3N(C)S(C)(=O)=O)n2)cc1 [defactinib]
Procedure, shortened: as §1

[7] = compound: CNCc1ccc(-c2[nH]c3cc(F)cc4c3c2CCNC4=O)cc1 [rucaparib]
Procedure, shortened: as §1

[8] = compound: CNc1nc(-c2ccc3c(N)n[nH]c3c2)cc(N2C[C@@H](C(=O)NC3CCCCC3)CC[C@H]2C)n1
Procedure, shortened: as §1

[9] = compound: COC(=O)N[C@@H](C)CNc1nccc(-c2cn(C(C)C)nc2-c2cc(Cl)cc(NS(C)(=O)=O)c2F)n1 [encorafenib]
Procedure, shortened: as §1

[10] = compound: COC(=O)[C@H](CCSC)NC(=O)C1=C(C=C(C=C1)NC[C@H](CS)N)C2=CC=CC=C2
Procedure, shortened: as §1

Measured: log2 fold change

ACTN1 (UniProt H9KV75)
inactive: [1] -0.025 | [2] 0.011 | [3] 0.012 | [4] 0.313 | [5] -0.271 | [6] -0.103 | [7] -0.106 | [8] -0.101 | [9] -0.004 | [10] -0.142

ADAM10 (UniProt O14672)
inactive: [1] -0.017 | [2] -0.003 | [3] -0.018 | [4] -0.014 | [5] -0.025 | [6] -0.053 | [7] -0.003 | [8] 0.052 | [9] 0.002 | [10] -0.001

ACOT9 isoform 4 (UniProt Q9Y305)
inactive: [1] -0.102 | [2] 0.054 | [3] 0.031 | [4] 0 | [5] -0.073 | [6] 0.057 | [7] 0.216 | [8] 0.127 | [9] 0.041 | [10] -0.032

ACOT7 isoform 7 (UniProt O00154)
inactive: [1] 0.08 | [2] 0.018 | [3] -0.002 | [4] -0.014 | [5] -0.056 | [6] -0.019 | [7] -0.026 | [8] -0.016 | [9] -0.014 | [10] 0.014

ADA (UniProt P00813)
inactive: [1] -0.011 | [2] 0.047 | [3] 0.025 | [4] -0.023 | [5] -0.02 | [6] 0 | [7] -0.086 | [8] -0.069 | [9] -0.019 | [10] 0.075

ABCC4 (UniProt O15439)
inactive: [1] 0.034 | [2] 0.028 | [3] 0.028 | [4] 0.001 | [5] -0.041 | [6] -0.021 | [7] -0.023 | [8] -0.01 | [9] -0.004 | [10] -0.029

AARS (UniProt P49588)
inactive: [1] 0.024 | [2] -0.003 | [3] -0.022 | [4] -0.013 | [5] -0.005 | [6] 0 | [7] -0.084 | [8] -0.006 | [9] 0.013 | [10] 0

ACTL8 (UniProt Q9H568)
inactive: [1] 0.084 | [2] 0.119 | [3] -0.037 | [4] -0.006 | [5] -0.011 | [6] -0.01 | [7] -0.05 | [8] 0.004 | [9] -0.022 | [10] 0.03

ABHD14B (UniProt Q96IU4)
inactive: [1] 0.044 | [2] -0.013 | [3] -0.106 | [4] -0.013 | [5] 0.045 | [6] -0.047 | [7] -0.073 | [8] -0.017 | [9] -0.005 | [10] 0.046

ACAA2 (UniProt P42765)
inactive: [1] 0.062 | [2] 0.03 | [3] -0.008 | [4] -0.002 | [5] -0.039 | [6] 0.004 | [7] -0.009 | [8] -0.046 | [9] -0.043 | [10] 0.012

ABI2 (UniProt Q9NYB9)
inactive: [1] -0.013 | [2] -0.037 | [3] -0.098 | [4] 0.008 | [5] 0.038 | [6] -0.12 | [7] 0.081 | [8] 0.111 | [9] 0.07 | [10] 0.05

ACBD3 (UniProt Q9H3P7)
inactive: [1] 0.006 | [2] 0.022 | [3] -0.098 | [4] -0.001 | [5] -0.015 | [6] -0.064 | [7] 0.057 | [8] 0.068 | [9] -0.021 | [10] -0.098

ABRAXAS2 (UniProt Q15018)
inactive: [1] 0.018 | [2] 0.051 | [3] -0.058 | [4] -0.116 | [5] -0.041 | [6] -0.015 | [7] -0.022 | [8] -0.022 | [9] -0.012 | [10] 0.024

ACTB, A0A2R8Y793
inactive: [1] 0.021 | [2] 0.013 | [3] -0.046 | [4] -0.034 | [5] -0.014 | [6] -0.014 | [7] -0.012 | [8] -0.048 | [9] 0 | [10] 0.021

ACADS (UniProt P16219)
inactive: [1] 0.039 | [2] 0.075 | [3] -0.067 | [4] -0.003 | [5] -0.003 | [6] 0.054 | [7] -0.052 | [8] 0.01 | [9] -0.099 | [10] -0.034

ABCF3 (UniProt Q9NUQ8)
inactive: [1] -0.104 | [2] -0.111 | [3] 0.202 | [4] 0.009 | [5] -0.088 | [6] 0.073 | [7] 0.096 | [8] 0.168 | [9] 0.013 | [10] -0.024

ACTR10 (UniProt Q9NZ32)
inactive: [1] -0.001 | [2] -0.012 | [3] 0.059 | [4] -0.002 | [5] 0.001 | [6] -0.029 | [7] -0.034 | [8] -0.007 | [9] 0.017 | [10] 0.038

Reprinted from the entries so far (8 entries):
ACAA2 (UniProt P42765)
inactive: [1] 0.062 | [2] 0.03 | [3] -0.008 | [4] -0.002 | [5] -0.039 | [6] 0.004 | [7] -0.009 | [8] -0.046 | [9] -0.043 | [10] 0.012

ABI2 (UniProt Q9NYB9)
inactive: [1] -0.013 | [2] -0.037 | [3] -0.098 | [4] 0.008 | [5] 0.038 | [6] -0.12 | [7] 0.081 | [8] 0.111 | [9] 0.07 | [10] 0.05

ACBD3 (UniProt Q9H3P7)
inactive: [1] 0.006 | [2] 0.022 | [3] -0.098 | [4] -0.001 | [5] -0.015 | [6] -0.064 | [7] 0.057 | [8] 0.068 | [9] -0.021 | [10] -0.098

ABRAXAS2 (UniProt Q15018)
inactive: [1] 0.018 | [2] 0.051 | [3] -0.058 | [4] -0.116 | [5] -0.041 | [6] -0.015 | [7] -0.022 | [8] -0.022 | [9] -0.012 | [10] 0.024

ACTB, A0A2R8Y793
inactive: [1] 0.021 | [2] 0.013 | [3] -0.046 | [4] -0.034 | [5] -0.014 | [6] -0.014 | [7] -0.012 | [8] -0.048 | [9] 0 | [10] 0.021

ACADS (UniProt P16219)
inactive: [1] 0.039 | [2] 0.075 | [3] -0.067 | [4] -0.003 | [5] -0.003 | [6] 0.054 | [7] -0.052 | [8] 0.01 | [9] -0.099 | [10] -0.034

ABCF3 (UniProt Q9NUQ8)
inactive: [1] -0.104 | [2] -0.111 | [3] 0.202 | [4] 0.009 | [5] -0.088 | [6] 0.073 | [7] 0.096 | [8] 0.168 | [9] 0.013 | [10] -0.024

ACTR10 (UniProt Q9NZ32)
inactive: [1] -0.001 | [2] -0.012 | [3] 0.059 | [4] -0.002 | [5] 0.001 | [6] -0.029 | [7] -0.034 | [8] -0.007 | [9] 0.017 | [10] 0.038

(cont.)

ABLIM1 (UniProt O14639)
inactive: [1] -0.17 | [2] -0.089 | [3] -0.009 | [4] 0.137 | [5] 0.011 | [6] -0.105 | [7] -0.045 | [8] 0.37 | [9] -0.059 | [10] -0.011

ABCB7 isoform 2 (UniProt O75027)
inactive: [1] 0.038 | [2] 0.047 | [3] -0.076 | [4] 0.014 | [5] -0.002 | [6] -0.05 | [7] -0.03 | [8] -0.015 | [9] 0.017 | [10] -0.009

ACAT2 (UniProt Q9BWD1)
inactive: [1] -0.013 | [2] 0.053 | [3] -0.039 | [4] -0.034 | [5] -0.018 | [6] -0.02 | [7] -0.052 | [8] -0.016 | [9] -0.016 | [10] -0.016

ABCF2 isoform 2 (UniProt Q9UG63)
inactive: [1] -0.007 | [2] 0.013 | [3] 0.018 | [4] -0.019 | [5] 0.012 | [6] 0.031 | [7] 0.009 | [8] 0 | [9] -0.006 | [10] -0.018

ADAM9 (UniProt Q13443)
inactive: [1] 0.048 | [2] 0.044 | [3] 0.006 | [4] -0.009 | [5] -0.022 | [6] -0.01 | [7] -0.006 | [8] -0.046 | [9] 0.003 | [10] 0.024

ADAT2 (UniProt Q7Z6V5)
inactive: [1] 0.079 | [2] 0.083 | [3] -0.002 | [4] -0.008 | [5] -0.04 | [6] -0.032 | [7] -0.002 | [8] -0.077 | [9] -0.003 | [10] 0.012

ACSS1 (UniProt Q9NUB1)
inactive: [1] -0.035 | [2] -0.033 | [3] -0.068 | [4] -0.012 | [5] 0.113 | [6] -0.04 | [7] 0.023 | [8] 0.017 | [9] 0.021 | [10] -0.003

ACTR1A (UniProt P61163)
inactive: [1] 0.004 | [2] -0.009 | [3] -0.025 | [4] -0.006 | [5] 0.03 | [6] -0.015 | [7] 0.051 | [8] 0.02 | [9] -0.012 | [10] 0

ABCB10 (UniProt Q9NRK6)
inactive: [1] 0.02 | [2] 0.046 | [3] -0.019 | [4] -0.023 | [5] 0.002 | [6] -0.001 | [7] -0.035 | [8] -0.052 | [9] -0.021 | [10] 0.027

ACACA isoform 4 (UniProt Q13085)
inactive: [1] -0.192 | [2] -0.2 | [3] 0.072 | [4] 0.112 | [5] -0.021 | [6] -0.029 | [7] 0.381 | [8] 0.137 | [9] 0.205 | [10] -0.115

AAAS (UniProt Q9NRG9)
inactive: [1] -0.005 | [2] -0.009 | [3] -0.058 | [4] -0.001 | [5] 0.002 | [6] -0.048 | [7] -0.046 | [8] 0.018 | [9] 0.007 | [10] -0.054

ADAM17 (UniProt P78536)
inactive: [1] 0.012 | [2] 0.021 | [3] -0.03 | [4] 0.022 | [5] -0.019 | [6] 0.038 | [7] 0.066 | [8] -0.083 | [9] 0.055 | [10] 0.03
